The assay addresses CXCR4 (human) (human (endogenous in human tumor cells)) (UniProt P61073). The assay can be described thus: pull-down; unpublished observation (Southgate et al unpublished); pulldown and reciprocal western analyses in non-ionic detergent solubilized lysates of human tumor cells.

Protein sequences, listed by entry. Tags and fused reporters are not part of them.
UniProt P61073: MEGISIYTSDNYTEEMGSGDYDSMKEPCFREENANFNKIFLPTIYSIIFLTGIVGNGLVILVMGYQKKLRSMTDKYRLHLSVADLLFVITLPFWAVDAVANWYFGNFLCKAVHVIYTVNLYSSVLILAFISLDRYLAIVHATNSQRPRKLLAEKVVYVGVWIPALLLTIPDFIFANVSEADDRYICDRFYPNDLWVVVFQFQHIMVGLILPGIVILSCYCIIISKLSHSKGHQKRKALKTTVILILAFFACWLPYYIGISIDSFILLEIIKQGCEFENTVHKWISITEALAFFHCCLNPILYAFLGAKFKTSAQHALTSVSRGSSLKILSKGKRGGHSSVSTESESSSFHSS

This passage reports binding results from publication PMC2848608.

Results are given in words; binding and its absence hold for the method and conditions named. Binding seen in cells or lysates may run through a third protein. Some binding calls cover weakened binding; strength is not graded here.

B1: 5T4 oncofetal glycoprotein (human) (protein, UniProt Q13641 32-420)
chain: SSPTSSASSFSSSAPFLASAVSAQPPLPDQCPALCECSEAARTVKCVNRNLTEVPTDLPAYVRNLFLTGNQLAVLPAGAFARRPPLAELAALNLSGSRLDEVRAGAFEHLPSLRQLDLSHNPLADLSPFAFSGSNASVSAPSPLVELILNHIVPPEDERQNRSFEGMVVAALLAGRALQGLRRLELASNHFLYLPRDVLAQLPSLRHLDLSNNSLVSLTYVSFRNLTHLESLHLEDNALKVLHNGTLAELQGLPHIRVFLDNNPWVCDCHMADMVTWLKETEVVQGKDRLTCAYPEKMRNRVLLELNSADLDCDPILPPSLQTSYVFLGIVLALIGAIFLLVLYLNRKGIKKWMHNIRDACRDHMEGYHYRYEINADPRLTNLSSNSDV
Consider B1, for which the binding entry is recorded as “binds”.
